No constants are given. Whether binding was seen depends on the method and setting. Binding seen in cells or lysates may run through a third protein. Some entries that bind do so weakly or less than the wild type. Sequences can lack the tags named with a protein. Blank lines part the entries; values can stand above or below the molecule they belong to.
Assays:
Assay in all cases: co-IP; anti-FLAG M2 beads on lysates of transfected HEK293T cells, eluted with SDS loading buffer, western blot; lysates with or without RNase A (40 μg/ml); in some panels cells also given siRNA against β-globin, DDX6, UNR or unrip, or co-transfected with HA-DDX6
[1] = target: T1, FLAG-4E-TΔCHD (human) (UniProt Q9NRA8)
T1 sequence: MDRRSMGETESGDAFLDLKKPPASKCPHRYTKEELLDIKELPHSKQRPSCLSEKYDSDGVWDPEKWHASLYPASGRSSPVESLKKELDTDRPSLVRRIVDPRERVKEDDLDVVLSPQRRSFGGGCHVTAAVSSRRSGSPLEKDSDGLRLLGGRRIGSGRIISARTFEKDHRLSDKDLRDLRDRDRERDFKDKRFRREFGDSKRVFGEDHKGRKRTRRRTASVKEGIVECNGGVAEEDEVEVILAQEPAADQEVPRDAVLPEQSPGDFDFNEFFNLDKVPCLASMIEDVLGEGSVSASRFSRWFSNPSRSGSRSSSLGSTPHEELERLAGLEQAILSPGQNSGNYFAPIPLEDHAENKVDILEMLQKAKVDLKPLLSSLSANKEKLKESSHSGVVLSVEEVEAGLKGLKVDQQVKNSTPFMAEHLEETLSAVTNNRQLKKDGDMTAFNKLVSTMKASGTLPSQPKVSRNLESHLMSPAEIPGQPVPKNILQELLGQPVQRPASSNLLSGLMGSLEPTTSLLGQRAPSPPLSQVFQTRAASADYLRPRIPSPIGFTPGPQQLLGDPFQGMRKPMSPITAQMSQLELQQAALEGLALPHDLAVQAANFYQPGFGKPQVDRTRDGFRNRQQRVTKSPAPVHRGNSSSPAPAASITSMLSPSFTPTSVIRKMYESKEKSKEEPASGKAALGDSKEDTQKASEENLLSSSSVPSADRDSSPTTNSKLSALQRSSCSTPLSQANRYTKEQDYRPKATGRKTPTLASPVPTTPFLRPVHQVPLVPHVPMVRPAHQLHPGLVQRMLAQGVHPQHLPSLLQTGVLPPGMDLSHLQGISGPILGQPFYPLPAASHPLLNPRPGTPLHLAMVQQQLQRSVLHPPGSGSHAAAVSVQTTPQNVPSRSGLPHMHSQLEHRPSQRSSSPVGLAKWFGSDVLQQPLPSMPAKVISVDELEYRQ

The chains behind the UniProt entries cited, without tags or fusion partners.
UniProt P06730: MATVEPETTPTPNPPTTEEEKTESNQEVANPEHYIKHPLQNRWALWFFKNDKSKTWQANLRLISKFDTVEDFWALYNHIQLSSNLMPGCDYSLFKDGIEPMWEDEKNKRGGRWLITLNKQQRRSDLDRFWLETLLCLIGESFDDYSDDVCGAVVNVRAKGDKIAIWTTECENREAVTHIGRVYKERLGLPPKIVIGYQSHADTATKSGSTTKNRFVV
UniProt Q8ND56: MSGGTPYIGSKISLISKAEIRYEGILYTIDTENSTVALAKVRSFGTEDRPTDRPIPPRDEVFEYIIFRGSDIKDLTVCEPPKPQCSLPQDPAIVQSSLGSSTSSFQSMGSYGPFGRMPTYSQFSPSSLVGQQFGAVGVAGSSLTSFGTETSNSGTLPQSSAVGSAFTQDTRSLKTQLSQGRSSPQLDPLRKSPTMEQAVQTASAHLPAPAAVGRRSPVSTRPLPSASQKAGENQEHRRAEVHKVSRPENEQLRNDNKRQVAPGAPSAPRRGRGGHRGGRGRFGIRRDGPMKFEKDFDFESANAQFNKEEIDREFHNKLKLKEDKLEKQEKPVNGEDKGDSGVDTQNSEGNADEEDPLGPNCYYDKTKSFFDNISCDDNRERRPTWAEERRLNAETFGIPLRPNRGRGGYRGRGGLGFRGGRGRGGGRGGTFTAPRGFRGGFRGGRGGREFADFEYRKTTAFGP
UniProt O60573: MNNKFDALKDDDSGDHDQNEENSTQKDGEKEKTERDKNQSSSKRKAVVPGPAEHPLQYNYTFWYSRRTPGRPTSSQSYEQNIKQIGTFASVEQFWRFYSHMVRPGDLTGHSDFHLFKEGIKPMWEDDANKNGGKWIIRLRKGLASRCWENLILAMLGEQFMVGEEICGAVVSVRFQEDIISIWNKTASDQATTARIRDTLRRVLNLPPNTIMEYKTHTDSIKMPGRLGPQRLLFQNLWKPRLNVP

[2] = target: T2, FLAG-4E-TΔCHDΔC (human) (UniProt Q9NRA8)
T2 sequence: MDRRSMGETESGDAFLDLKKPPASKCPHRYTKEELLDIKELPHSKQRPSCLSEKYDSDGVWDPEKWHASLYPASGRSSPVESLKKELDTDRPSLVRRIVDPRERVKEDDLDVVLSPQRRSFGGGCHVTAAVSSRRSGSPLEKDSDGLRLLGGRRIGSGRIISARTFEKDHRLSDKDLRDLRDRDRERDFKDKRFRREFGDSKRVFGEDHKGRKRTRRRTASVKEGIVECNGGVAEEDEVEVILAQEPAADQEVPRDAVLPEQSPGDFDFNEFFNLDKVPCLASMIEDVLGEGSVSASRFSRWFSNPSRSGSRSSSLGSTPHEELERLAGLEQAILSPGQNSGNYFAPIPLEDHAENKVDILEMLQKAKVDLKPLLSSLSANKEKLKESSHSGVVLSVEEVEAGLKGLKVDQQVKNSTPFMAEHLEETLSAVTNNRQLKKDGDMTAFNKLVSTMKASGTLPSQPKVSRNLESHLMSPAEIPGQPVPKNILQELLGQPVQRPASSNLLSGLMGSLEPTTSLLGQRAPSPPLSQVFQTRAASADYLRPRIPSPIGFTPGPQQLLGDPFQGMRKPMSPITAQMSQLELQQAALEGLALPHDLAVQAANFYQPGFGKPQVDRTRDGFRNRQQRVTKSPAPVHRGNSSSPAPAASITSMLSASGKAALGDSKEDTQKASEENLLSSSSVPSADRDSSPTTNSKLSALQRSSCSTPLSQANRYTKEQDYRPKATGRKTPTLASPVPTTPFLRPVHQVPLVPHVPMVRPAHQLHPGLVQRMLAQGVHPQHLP

[3] = target: T3, FLAG-4E-TΔII (human) (UniProt Q9NRA8)
T3 sequence: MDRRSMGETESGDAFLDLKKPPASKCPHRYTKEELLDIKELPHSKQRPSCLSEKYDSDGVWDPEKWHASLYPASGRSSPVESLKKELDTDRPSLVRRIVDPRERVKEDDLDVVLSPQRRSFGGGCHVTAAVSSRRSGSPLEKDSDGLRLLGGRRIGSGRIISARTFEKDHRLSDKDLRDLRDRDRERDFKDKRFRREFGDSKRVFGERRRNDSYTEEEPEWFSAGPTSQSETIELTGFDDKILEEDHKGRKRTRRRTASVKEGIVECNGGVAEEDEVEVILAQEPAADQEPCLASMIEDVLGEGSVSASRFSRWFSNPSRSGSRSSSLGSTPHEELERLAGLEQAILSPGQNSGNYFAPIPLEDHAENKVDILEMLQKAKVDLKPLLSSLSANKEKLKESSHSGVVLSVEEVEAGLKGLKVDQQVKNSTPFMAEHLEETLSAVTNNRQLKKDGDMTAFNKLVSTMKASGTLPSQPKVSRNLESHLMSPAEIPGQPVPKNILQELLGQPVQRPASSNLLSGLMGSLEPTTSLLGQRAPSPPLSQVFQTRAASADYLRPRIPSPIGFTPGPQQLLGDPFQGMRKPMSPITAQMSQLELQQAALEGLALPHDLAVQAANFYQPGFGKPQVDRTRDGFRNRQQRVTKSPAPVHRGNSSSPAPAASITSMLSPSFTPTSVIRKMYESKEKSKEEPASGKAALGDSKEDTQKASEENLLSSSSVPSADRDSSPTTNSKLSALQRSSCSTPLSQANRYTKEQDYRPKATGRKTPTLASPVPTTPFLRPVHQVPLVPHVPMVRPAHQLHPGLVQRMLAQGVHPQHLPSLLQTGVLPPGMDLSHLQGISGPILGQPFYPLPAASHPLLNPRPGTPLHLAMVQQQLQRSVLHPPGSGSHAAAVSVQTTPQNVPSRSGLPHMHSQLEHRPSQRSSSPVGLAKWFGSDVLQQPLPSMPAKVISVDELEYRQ

Molecule: eIF4E1, endogenous (from UniProt P06730 1-217)
binding [1]: binds | binding [2]: binds | binding [3]: binds

B1: CNOT4, endogenous (protein, UniProt O95628 1-575)
chain: MSRSPDAKEDPVECPLCMEPLEIDDINFFPCTCGYQICRFCWHRIRTDENGLCPACRKPYPEDPAVYKPLSQEELQRIKNEKKQKQNERKQKISENRKHLASVRVVQKNLVFVVGLSQRLADPEVLKRPEYFGKFGKIHKVVINNSTSYAGSQGPSASAYVTYIRSEDALRAIQCVNNVVVDGRTLKASLGTTKYCSYFLKNMQCPKPDCMYLHELGDEAASFTKEEMQAGKHQEYEQKLLQELYKLNPNFLQLSTGSVDKNKNKVTPLQRYDTPIDKPSDSLSIGNGDNSQQISNSDTPSPPPGLSKSNPVIPISSSNHSARSPFEGAVTESQSLFSDNFRHPNPIPSGLPPFPSSPQTSSDWPTAPEPQSLFTSETIPVSSSTDWQAAFGFGSSKQPEDDLGFDPFDVTRKALADLIEKELSVQDQPSLSPTSLQNSSSHTTTAKGPGSGFLHPAAATNANSLNSTFSVLPQRFPQFQQHRAVYNSFSFPGQAARYPWMAFPRNSIMHLNHTANPTSNSNFLDLNLPPQHNTGLGGIPVAGEEEVKVSTMPLSTSSHSLQQGQQPTSLHTTVA
binding [1]: binds | binding [3]: binds

The next lines start with the values.

binding [1]: binds | binding [2]: binds | binding [3]: binds
Molecule: LSM14A, endogenous (from UniProt Q8ND56 1-463)

binding [1]: binds | binding [3]: binds
Molecule: eIF4E2, endogenous (from UniProt O60573 1-245)

binding [1]: binds | binding [2]: binds | binding [3]: binds
B2: PAT1B, endogenous (protein, UniProt Q86TB9 1-770)
chain: MFRYESLEDCPLDEDEDAFQGLGEEDEEIDQFNDDTFGSGAVDDDWQEAHERLAELEEKLPVAVNEQTGNGERDEMDLLGDHEENLAERLSKMVIENELEDPAIMRAVQTRPVLQPQPGSLNSSIWDGSEVLRRIRGPLLAQEMPTVSVLEYALPQRPPQGPEDDRDLSERALPRRSTSPIIGSPPVRAVPIGTPPKQMAVPSFTQQILCPKPVHVRPPMPPRYPAPYGERMSPNQLCSVPNSSLLGHPFPPSVPPVLSPLQRAQLLGGAQLQPGRMSPSQFARVPGFVGSPLAAMNPKLLQGRVGQMLPPAPGFRAFFSAPPSATPPPQQHPPGPGPHLQNLRSQAPMFRPDTTHLHPQHRRLLHQRQQQNRSQHRNLNGAGDRGSHRSSHQDHLRKDPYANLMLQREKDWVSKIQMMQLQSTDPYLDDFYYQNYFEKLEKLSAAEEIQGDGPKKERTKLITPQVAKLEHAYKPVQFEGSLGKLTVSSVNNPRKMIDAVVTSRSEDDETKEKQVRDKRRKTLVIIEKTYSLLLDVEDYERRYLLSLEEERPALMDDRKHKICSMYDNLRGKLPGQERPSDDHFVQIMCIRKGKRMVARILPFLSTEQAADILMTTARNLPFLIKKDAQDEVLPCLLSPFSLLLYHLPSVSITSLLRQLMNLPQSAATPALSNPHLTAVLQNKFGLSLLLILLSRGEDLQSSDPATESTQNNQWTEVMFMATRELLRIPQAALAKPISIPTNLVSLFSRYVDRQKLNLLETKLQLVQGIR

From publication PMC5291280
